This is one part of the list. Most values lie at the level of the controls, where differences are scatter.

The chains behind the UniProt entries cited, without tags or fusion partners. Where a name states a change or a piece, a line headed by the entry shows the natural chain unless it says otherwise.
UniProt Q49AM3: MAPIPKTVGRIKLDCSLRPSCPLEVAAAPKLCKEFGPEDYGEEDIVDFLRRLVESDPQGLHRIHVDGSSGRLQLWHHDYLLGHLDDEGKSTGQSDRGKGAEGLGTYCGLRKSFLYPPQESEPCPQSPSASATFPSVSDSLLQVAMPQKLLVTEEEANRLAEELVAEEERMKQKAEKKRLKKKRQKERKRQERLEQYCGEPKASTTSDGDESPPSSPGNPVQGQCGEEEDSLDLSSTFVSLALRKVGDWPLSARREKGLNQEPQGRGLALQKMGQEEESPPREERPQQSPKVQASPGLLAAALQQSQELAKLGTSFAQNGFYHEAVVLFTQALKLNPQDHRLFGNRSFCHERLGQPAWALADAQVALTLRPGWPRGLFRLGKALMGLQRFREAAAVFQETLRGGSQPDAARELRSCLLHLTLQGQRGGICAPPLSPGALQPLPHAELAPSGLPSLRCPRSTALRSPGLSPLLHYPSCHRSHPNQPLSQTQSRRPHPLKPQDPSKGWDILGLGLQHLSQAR
UniProt Q5JTJ3: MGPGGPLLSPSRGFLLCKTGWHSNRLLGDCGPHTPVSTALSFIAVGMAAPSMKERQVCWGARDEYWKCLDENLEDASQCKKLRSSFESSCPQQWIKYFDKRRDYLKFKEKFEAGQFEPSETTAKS
UniProt Q5T5X7: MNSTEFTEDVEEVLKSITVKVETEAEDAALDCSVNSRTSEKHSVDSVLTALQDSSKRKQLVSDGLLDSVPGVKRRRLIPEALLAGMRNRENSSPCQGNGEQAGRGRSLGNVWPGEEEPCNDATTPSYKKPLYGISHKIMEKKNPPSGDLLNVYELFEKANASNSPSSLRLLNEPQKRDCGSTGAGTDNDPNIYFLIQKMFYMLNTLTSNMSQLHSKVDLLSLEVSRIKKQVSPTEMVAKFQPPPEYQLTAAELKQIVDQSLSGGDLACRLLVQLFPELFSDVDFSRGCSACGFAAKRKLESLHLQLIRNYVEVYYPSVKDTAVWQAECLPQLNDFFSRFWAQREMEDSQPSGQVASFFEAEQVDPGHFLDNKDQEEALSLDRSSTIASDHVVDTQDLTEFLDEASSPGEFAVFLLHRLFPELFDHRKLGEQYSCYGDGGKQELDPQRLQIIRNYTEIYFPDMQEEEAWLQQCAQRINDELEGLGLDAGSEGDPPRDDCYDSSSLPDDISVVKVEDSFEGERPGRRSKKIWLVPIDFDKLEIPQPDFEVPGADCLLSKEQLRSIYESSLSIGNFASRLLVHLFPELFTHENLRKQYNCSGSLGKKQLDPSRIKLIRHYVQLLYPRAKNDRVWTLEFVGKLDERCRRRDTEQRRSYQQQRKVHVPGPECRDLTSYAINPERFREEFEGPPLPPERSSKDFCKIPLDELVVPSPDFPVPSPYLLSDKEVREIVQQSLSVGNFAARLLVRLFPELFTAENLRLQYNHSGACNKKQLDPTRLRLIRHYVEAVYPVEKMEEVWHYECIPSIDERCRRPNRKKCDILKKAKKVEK
UniProt Q53TN4: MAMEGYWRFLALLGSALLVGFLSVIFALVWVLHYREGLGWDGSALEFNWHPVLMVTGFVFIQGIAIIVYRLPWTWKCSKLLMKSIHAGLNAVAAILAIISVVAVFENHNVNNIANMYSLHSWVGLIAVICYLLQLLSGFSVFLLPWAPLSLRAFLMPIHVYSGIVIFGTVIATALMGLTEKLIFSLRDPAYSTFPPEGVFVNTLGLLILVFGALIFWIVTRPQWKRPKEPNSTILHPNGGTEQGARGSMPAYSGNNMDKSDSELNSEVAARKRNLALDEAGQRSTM
UniProt Q53GT1: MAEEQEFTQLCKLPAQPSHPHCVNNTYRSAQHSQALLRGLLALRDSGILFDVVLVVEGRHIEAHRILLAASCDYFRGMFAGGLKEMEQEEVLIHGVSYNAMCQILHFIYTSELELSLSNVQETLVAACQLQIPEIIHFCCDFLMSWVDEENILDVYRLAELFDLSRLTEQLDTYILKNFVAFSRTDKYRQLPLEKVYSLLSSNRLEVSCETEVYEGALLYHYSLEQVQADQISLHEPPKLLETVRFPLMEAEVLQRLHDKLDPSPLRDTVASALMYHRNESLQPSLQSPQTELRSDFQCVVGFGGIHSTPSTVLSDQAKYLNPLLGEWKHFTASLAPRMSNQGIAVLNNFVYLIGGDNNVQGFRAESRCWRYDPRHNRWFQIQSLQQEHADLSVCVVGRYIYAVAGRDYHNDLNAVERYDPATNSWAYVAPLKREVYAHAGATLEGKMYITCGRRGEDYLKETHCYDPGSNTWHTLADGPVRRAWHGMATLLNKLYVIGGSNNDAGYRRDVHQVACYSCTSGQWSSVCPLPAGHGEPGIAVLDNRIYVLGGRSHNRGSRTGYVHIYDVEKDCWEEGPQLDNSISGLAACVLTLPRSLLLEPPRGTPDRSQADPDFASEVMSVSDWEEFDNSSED
UniProt Q5T6J7: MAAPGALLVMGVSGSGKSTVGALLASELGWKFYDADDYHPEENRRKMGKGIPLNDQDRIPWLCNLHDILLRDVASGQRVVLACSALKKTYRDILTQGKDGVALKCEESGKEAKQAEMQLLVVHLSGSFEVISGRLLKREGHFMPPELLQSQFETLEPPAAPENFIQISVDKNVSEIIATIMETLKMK
UniProt Q5T890: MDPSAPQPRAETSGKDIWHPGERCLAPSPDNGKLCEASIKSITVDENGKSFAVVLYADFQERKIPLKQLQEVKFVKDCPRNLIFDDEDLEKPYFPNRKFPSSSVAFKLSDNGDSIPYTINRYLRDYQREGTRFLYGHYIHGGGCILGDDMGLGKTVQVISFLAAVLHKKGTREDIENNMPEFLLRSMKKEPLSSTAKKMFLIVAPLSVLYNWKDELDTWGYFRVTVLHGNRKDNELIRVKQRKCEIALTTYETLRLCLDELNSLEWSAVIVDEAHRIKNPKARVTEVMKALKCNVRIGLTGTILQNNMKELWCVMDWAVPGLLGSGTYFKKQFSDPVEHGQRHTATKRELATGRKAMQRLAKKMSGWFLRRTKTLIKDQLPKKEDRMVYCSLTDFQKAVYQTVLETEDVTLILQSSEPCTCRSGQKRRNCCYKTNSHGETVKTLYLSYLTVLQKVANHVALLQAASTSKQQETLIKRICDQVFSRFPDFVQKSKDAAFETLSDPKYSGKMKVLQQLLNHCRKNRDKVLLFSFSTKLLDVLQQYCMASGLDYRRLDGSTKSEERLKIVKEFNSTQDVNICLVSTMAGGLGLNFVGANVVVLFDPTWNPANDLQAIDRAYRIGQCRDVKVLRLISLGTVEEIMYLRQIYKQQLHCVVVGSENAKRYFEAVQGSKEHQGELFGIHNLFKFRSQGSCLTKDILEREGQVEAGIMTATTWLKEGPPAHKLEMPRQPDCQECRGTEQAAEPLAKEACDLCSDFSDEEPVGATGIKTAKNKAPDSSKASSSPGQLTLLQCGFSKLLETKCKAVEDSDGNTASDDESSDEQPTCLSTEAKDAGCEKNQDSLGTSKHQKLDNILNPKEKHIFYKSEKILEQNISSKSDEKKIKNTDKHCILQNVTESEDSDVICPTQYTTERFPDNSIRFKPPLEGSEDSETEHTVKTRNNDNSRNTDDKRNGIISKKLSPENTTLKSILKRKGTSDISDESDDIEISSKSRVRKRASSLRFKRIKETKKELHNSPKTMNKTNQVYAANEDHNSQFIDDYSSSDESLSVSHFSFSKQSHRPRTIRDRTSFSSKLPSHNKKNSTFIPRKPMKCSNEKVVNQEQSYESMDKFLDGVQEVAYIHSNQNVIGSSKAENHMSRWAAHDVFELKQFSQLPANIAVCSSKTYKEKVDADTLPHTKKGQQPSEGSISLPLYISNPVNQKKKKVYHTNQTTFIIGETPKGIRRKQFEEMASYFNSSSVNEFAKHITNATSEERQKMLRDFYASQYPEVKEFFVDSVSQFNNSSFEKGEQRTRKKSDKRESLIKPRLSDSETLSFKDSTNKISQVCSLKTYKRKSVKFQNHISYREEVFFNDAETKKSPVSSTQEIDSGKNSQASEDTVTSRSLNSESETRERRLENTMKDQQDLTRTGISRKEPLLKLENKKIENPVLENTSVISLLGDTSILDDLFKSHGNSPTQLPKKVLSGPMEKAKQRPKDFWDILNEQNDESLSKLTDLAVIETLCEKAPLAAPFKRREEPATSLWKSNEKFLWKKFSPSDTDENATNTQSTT
UniProt Q5T481: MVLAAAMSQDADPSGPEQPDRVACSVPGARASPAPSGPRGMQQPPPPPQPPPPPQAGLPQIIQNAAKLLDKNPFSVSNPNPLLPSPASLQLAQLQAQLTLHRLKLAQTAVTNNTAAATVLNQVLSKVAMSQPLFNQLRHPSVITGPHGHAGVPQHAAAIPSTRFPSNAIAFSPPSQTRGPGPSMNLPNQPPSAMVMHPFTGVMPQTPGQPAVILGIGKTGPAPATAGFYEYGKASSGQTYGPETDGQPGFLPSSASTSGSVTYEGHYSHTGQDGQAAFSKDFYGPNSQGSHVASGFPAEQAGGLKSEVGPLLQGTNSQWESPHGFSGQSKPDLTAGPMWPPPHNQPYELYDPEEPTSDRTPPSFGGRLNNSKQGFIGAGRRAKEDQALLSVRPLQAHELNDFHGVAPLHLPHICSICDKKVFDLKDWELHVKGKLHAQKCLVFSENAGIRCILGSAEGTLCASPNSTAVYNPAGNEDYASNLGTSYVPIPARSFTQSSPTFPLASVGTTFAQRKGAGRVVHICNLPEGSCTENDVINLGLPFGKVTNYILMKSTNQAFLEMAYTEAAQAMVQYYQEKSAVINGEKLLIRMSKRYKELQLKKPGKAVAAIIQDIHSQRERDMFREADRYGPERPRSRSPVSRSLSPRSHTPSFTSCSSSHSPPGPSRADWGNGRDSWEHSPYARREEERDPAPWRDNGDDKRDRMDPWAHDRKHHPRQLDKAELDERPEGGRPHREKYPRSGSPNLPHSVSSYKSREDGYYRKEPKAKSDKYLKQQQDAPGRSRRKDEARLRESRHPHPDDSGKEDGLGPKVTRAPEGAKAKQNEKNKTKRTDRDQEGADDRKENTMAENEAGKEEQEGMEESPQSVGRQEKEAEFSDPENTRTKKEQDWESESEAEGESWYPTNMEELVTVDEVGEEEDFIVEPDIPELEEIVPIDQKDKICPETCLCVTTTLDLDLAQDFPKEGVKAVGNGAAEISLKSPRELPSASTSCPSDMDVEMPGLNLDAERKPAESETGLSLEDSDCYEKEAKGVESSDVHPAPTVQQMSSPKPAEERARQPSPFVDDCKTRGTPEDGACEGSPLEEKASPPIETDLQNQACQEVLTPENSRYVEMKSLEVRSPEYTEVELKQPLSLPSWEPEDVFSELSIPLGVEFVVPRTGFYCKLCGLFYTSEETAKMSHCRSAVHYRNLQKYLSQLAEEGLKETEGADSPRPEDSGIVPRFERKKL
UniProt Q53HC5: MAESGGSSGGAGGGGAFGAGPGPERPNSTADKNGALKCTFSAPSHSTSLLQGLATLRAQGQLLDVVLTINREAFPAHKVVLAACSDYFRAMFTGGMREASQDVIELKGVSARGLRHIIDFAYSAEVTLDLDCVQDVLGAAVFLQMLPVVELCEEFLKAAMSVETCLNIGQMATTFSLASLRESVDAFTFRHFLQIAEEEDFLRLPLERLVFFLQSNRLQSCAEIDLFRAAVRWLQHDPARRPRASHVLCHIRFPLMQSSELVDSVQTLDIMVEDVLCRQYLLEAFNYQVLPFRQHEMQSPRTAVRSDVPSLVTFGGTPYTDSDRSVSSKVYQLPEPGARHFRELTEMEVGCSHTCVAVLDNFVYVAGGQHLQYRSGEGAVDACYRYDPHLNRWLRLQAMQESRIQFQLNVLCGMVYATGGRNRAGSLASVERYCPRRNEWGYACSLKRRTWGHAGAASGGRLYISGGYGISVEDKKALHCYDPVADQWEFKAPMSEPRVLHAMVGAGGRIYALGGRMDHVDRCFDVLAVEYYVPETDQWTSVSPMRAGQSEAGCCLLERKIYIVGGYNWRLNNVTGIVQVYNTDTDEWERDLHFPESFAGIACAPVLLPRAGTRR
UniProt Q5VTE6: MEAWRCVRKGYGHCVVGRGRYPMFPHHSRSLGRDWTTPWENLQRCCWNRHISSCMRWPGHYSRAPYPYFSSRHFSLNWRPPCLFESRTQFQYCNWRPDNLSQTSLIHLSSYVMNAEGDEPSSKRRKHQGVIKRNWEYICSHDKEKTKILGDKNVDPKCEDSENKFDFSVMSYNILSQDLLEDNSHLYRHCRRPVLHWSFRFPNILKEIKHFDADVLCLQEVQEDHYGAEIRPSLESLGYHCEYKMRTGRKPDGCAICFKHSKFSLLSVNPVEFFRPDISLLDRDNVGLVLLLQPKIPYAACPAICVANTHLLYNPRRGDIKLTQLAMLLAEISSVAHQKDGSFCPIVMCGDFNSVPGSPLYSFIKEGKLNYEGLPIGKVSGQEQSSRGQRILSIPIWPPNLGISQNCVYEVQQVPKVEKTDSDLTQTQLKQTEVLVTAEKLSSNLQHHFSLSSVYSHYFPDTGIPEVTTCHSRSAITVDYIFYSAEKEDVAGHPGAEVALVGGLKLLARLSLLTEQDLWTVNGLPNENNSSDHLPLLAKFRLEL

Compound in the assay: CN[C@@H]1C[C@H]2O[C@@](C)([C@@H]1OC)n1c3ccccc3c3c4c(c5c6ccccc6n2c5c31)C(=O)NC4 [staurosporine]
The assay can be described thus: log2 fold change of tryptic peptide abundance, ligand vs vehicle (limited proteolysis) (log2 ratio); higher = more trypsin-susceptible (destabilized). Conditions: ligand concentration: 20 uM; sample: K562 cleared lysate; digestion: 4 min, 22 C (HT-PELSA RT4min, Orbitrap Astral).
Regarding “UniProt Q4ADV7 (peptide sequence: TLSMPSGPSGK, peptide start residue: 1035)”, the log2 fold change is -0.177.
Regarding “UniProt Q5TB30 (peptide sequence: NHVIEDIK, peptide start residue: 82)”, the log2 fold change is 0.174.
As for “UniProt Q5VXD3 (peptide sequence: IYEYHVKPLQTK, peptide start residue: 104)”, the figure is 0.371; as for “UniProt Q4KMZ1 (peptide sequence: AGCTGEEQWR, peptide start residue: 447)”, -0.182.
In the case of “ATPAF1 (peptide sequence: KQPVGHSR, peptide start residue: 107) (UniProt Q5TC12)”, the log2 fold change stood at 0.241.
In the case of “UniProt Q49AM3 (peptide sequence: EAAAVFQETLR, peptide start residue: 391)” it was 0.627; in that of “UniProt Q562F6 (peptide sequence: TQEDKEPISENIEVSK, peptide start residue: 650)”, -0.421; in that of “UniProt Q5K130 (peptide sequence: KEAQEKM, peptide start residue: 95)”, -0.478.
Turning to “RNASEH2B (peptide sequence: IKLSDEPVEAK, peptide start residue: 249) (UniProt Q5TBB1)”, the log2 fold change stood at 0.474.
In the case of “SDHAF4 (peptide sequence: FDAPEDSHLEK, peptide start residue: 58) (UniProt Q5VUM1)” it was 0.213; in that of “UniProt Q5JTJ3 (peptide sequence: SSFESSCPQQWIK, peptide start residue: 84)”, -0.387; in that of “BEND3 (peptide sequence: KNPPSGDLLNVYELFEK, peptide start residue: 142) (UniProt Q5T5X7)”, 0.493.
For “CYBRD1 (peptide sequence: NLALDEAGQR, peptide start residue: 274) (UniProt Q53TN4)”, the log2 fold change is 0.301.
With “PHF19 (peptide sequence: WAAELDGR, peptide start residue: 490) (UniProt Q5T6S3)”, the log2 fold change was -0.0987.
Turning to “UniProt Q5QP82 (peptide sequence: LTHYIEEANVGR, peptide start residue: 461)”, the log2 fold change is -0.772.
Take “UniProt Q5T9C2 (peptide sequence: GGGTSSGGSSTNSLTGSRPPK, peptide start residue: 177)”: the log2 fold change was -0.721.
On to “KLHL22 (peptide sequence: LPAQPSHPHCVNNTYR, peptide start residue: 13) (UniProt Q53GT1)”, for which the log2 fold change is -0.0696.
As for “UniProt Q5T6J7 (peptide sequence: VVLACSALK, peptide start residue: 79)”, the figure is -0.12.
Regarding “UniProt Q5VWI1 (peptide sequence: GVSAFSTWEK, peptide start residue: 674)”, the log2 fold change came out at 0.145.
For “RABL3 (peptide sequence: AVFYNSVNGIIFVHDLTNKK, peptide start residue: 82) (UniProt Q5HYI8)”, the log2 fold change was -0.768.
Regarding “PHLDA2 (peptide sequence: YVYFTIVTTDHK, peptide start residue: 67) (UniProt Q53GA4)”, the log2 fold change is -0.581.
For the target “ERCC6L2 (peptide sequence: ILEQNISSK, peptide start residue: 880) (UniProt Q5T890)”, the log2 fold change amounted to 0.385.
In the case of “UniProt Q5HYC2 (peptide sequence: FIENQEK, peptide start residue: 612)”, the log2 fold change is 0.0273.
As to “RBM20 (peptide sequence: KPAESETGLSLEDSDCYEKEAK, peptide start residue: 1009) (UniProt Q5T481)”, the log2 fold change was -0.423.
As for “UniProt Q5T035 (peptide sequence: NLTEQNSYSNIPHEGK, peptide start residue: 411)”, the figure is -0.0427; as for “KLHL26 (peptide sequence: TWGHAGAASGGR, peptide start residue: 450) (UniProt Q53HC5)”, 0.766; as for “RPRD2 (peptide sequence: EPVGPSSAPPVPPKDHGGIFSR, peptide start residue: 1208) (UniProt Q5VT52)”, 0.465.
Regarding “UniProt Q5T7W7 (peptide sequence: LFVFDER, peptide start residue: 400)”, the log2 fold change was -0.135.
In the case of “UniProt Q5CZA5 (peptide sequence: HDGLGTADSVCSR, peptide start residue: 158)”, the log2 fold change is -0.156.
In the case of “GLE1 (peptide sequence: KVQALSEMASEQLK, peptide start residue: 157) (UniProt Q53GS7)” it was -0.7; in that of “ANGEL2 (peptide sequence: NWEYICSHDKEK, peptide start residue: 134) (UniProt Q5VTE6)”, -0.269; in that of “UniProt Q5MNZ6 (peptide sequence: QSSLASASFLPK, peptide start residue: 267)”, -0.0672.
As for “PPRC1 (peptide sequence: SKFDSLDFDTLLK, peptide start residue: 1644) (UniProt Q5VV67)”, the figure is -0.568; as for “UniProt Q5VYS8 (peptide sequence: NILPITTAKVPIVK, peptide start residue: 1046)”, 0.626.
In the case of “ESCO2 (peptide sequence: VIYKPIVEK, peptide start residue: 170) (UniProt Q56NI9)” it was 0.586.
Regarding “EARS2 (peptide sequence: AQLDAISEKVDVIAK, peptide start residue: 433) (UniProt Q5JPH6)”, the log2 fold change worked out at 0.238.
As for “CCDC152 (peptide sequence: LINDFSQIEKK, peptide start residue: 20) (UniProt Q4G0S7)”, the figure is 0.0997.

These data come from the supplement of paper PMC12819154, “High-throughput peptide-centric local stability assay extends protein–ligand identification to membrane proteins, tissues and bacteria” (Nature Structural & Molecular Biology, 2025).
